Where a SMILES comes first, the peptide text is derived from it. [ ]: non-standard residue; d: D form. Hyp = O=C(O)[C@@H]1C[C@@H](O)CN1

The text below walks through data of patent US12383653B2, “Neutral multidomain peptide hydrogels and uses thereof” (William Marsh Rice University, priority 2018, dated 2025).

The data set in a line: In vivo host response, subcutaneous injection model. Details: species or system mice. As to the method: In vivo compatibility studies. All experimental procedures were approved by the Rice University Institutional Animal Care and Use Committee (IACUC) and performed according to the Animal Welfare Act and NIH guidelines. Female C57BL/6 mice from 8 to 12 weeks were purchased from Charles River (Wilmington, MA). Mice were injected with 4 implants of 100 μL 1% by weight O5 hydrogel in the dorsal subcutaneous space using a 26-gauge needle. At days 3, 7, and 14 mice were euthanized, and implants were extracted, fixed with 10% neutral buffered formalin and processed into paraffin blocks. Tissue was sectioned at 5 μm thickness and stained with hematoxylin and eosin, and Masson's trichome under standard procedures. For fluorescent immunostaining, tissue sections were deparaffinized, hydrated and antigens were retrieved by boiling in sodium citrate buffer (10 mM sodium citrate, 0.05% Tween 20 at pH 6.0). Tissues were permeabilized with 0.5% Triton X and blocked with 1% BSA in PBS for 30 min. Tissues were incubated overnight at 4° C. with rat anti-Mouse F4/80 monoclonal antibody (1:50, clone BM8, eBioscience™, Cat #14-4801-82). Then, samples were incubated for 1 hour with goat anti-rat AlexaFluor® 568 (1:500, Invitrogen), followed by mounting with ProLong® Gold Antifade reagent with DAPI. Tissue slides were analyzed by confocal fluorescent microscopy.

For `CC(=O)N1C[C@H](O)C[C@H]1C(=O)N1C[C@H](O)C[C@H]1C(=O)N1C[C@H](O)C[C@H]1C(=O)N1C[C@H](O)C[C@H]1C(=O)N1C[C@H](O)C[C@H]1C(=O)N[C@@H](CO)C(=O)N[C@@H](CC(C)C)C(=O)N[C@@H](CO)C(=O)N[C@@H](CC(C)C)C(=O)N[C@@H](CO)C(=O)N[C@@H](CC(C)C)C(=O)N[C@@H](CO)C(=O)N[C@@H](CC(C)C)C(=O)N[C@@H](CO)C(=O)N[C@@H](CC(C)C)C(=O)N[C@@H](CO)C(=O)N[C@@H](CC(C)C)C(=O)N1C[C@H](O)C[C@H]1C(=O)N1C[C@H](O)C[C@H]1C(=O)N1C[C@H](O)C[C@H]1C(=O)N1C[C@H](O)C[C@H]1C(=O)N1C[C@H](O)C[C@H]1C(N)=O` [Peptide O5, Ac-OOOOOSLSLSLSLSLSLOOOOO-CONH2] (Ac-[Hyp][Hyp][Hyp][Hyp][Hyp]SLSLSLSLSLSL[Hyp][Hyp][Hyp][Hyp][Hyp]-NH2), the “macrophage (F4/80+) infiltration of implant” value was “F4/80+ macrophages have infiltrated the periphery of the material” (day 3, 100 μL 1% by weight hydrogel subcutaneous) and “macrophages have completely infiltrated the implant” (day 7). Also, where the note is “subcutaneous implant”, the vascularization or innervation entry is reported as “did not promote vascularization or innervation”.
